Data taken from US20240148000A1, “METHOD FOR CONTROLLING HARMFUL ARTHROPODS OR HARMFUL NEMATODES USING ZOANTHAMINE” (SUMITOMO CHEMICAL COMPANY, LIMITED, priority 2021, published 2024).
Some results were stated once for a whole list of compounds, not compound by compound. At least one compound was matched to its structure with a doubt left.

Tests used:
Type in all cases: in vivo
[1] = tested on: cotton aphids (Aphis gossypii); assay: Test Method 3: foliar spray on cucumber seedling, cotton aphids; conditions: 200 ppm, sprayed 10 mL/seedling on cucumber 1 day after release of aphids, counted after 5 days
[2] = tested on: cotton aphids (Aphis gossypii); assay: Test Method 4: soil drench of cucumber seedling, cotton aphids; conditions: 200 ppm, drenched 5 mL/seedling at bottom of cucumber seedling, aphids released after 7 days, counted after further 6 days
[3] = tested on: brown planthoppers (Nilaparvata lugens); assay: Test Method 6: root uptake by rice seedling, brown planthoppers; conditions: 200 ppm, 5 mL diluted solution under rice seedling container, larvae released after 7 days, counted after further 6 days
[4] = tested on: Western flower thrips (Frankliniella occidentalis); assay: Test Method 7: sprayed cabbage leaf, Western flower thrips nymphs; conditions: 200 ppm, sprayed 10 mL/seedling on cabbage, cut leaf, after 6 days
[5] = tested on: tobacco whiteflies (Bemisia tabaci); assay: Test Method 8: foliar spray on tomato seedling, tobacco whitefly nymphs; conditions: 200 ppm, sprayed 10 mL/seedling on tomato with nymphs, after 7 days

CC1=CC(=O)[C@@H]2[C@@H](C1)[C@]1(C)C[C@@]34OC(=O)C[C@@](C)([C@H]1C(=O)[C@@H]2C)[C@]3(C)CC[C@]12C[C@@H](C)C[C@H](CN14)O2.Cl [compound 6]
≥ 90%: controlling value [1] | controlling value [2] | mortality [3] | mortality [4] | controlling value [5]

CC1=CC(=O)[C@@H]2[C@@H](C1)[C@]1(C)C[C@@]34OC(=O)C[C@@](C)([C@H]1C(=O)[C@@H]2C)[C@]3(C)CC[C@]12C[C@@H](C)C[C@H](CN14)O2 [compound 2]
≥ 90%: controlling value [1] | controlling value [2] | mortality [3] | mortality [4] | controlling value [5]
